# In patent US7507708B2 (Pharma Mar, S.A.U., priority 2003, dated 2009):
# Some peptides are written in HELM: one residue between dots, names in brackets for other building blocks, links after the first $.
# Test: general procedure: Fmoc solid-phase peptide synthesis; DIPCDI/HOAt
# Details: whole synthesis
# [1] = HPLC Condition A, scale of the general procedure 1 g of resin
# [2] = scale of the general procedure 1 g of resin
substance,measurement,setting,value
(4S)-MeHex-D-Val-Thr(tBu)-Val-D-Val-D-Pro-Orn(Boc)-D-allo-Ile-D-allo-Thr (Val-Z-Dhb-Phe-H)-D-allo-Ile-D-Val-OH,crude mass,,639 mg
same,crude HPLC purity,[1],>95%
same,crude yield,[2],77% yield
"PEPTIDE1{[4S-MeHex].[dV].T.V.[dV].[dP].[Orn].[D-aIle].[D-aThr].[D-aIle].[dV].F.[Z-Dhb].V}$PEPTIDE1,PEPTIDE1,9:R3-14:R2$$$V2.0",isolated mass,,192 mg
same,final purity (method not given),[1],92.3%
same,isolated yield,[2],26%
